## Drug screen on melanoma cell lines: cell count

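Human melanoma cells were exposed to two drugs together for 72 h in 1,536-well plates and read by automated microscopy after fixing and staining. Values are the number of DAPI-stained nuclei as a percentage of the DMSO control: 100 is no effect, lower means fewer cells. Concentrations were fixed for each drug; these are the lower of two levels, a fifth of the higher. These are primary screening values without error estimates.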 An unselected part of the screen is shown. An entry leaves out what has no value listed here. A dash means that no value is listed here.

Compounds and concentrations:
fludarabine: Nc1nc(F)nc2c1ncn2[C@@H]1O[C@H](CO)[C@@H](O)[C@@H]1O at 0.2 µM
tamatinib: COc1cc(Nc2ncc(F)c(Nc3ccc4c(n3)NC(=O)C(C)(C)O4)n2)cc(OC)c1OC at 0.4 µM
BI-D1870: CC(C)CCN1c2nc(Nc3cc(F)c(O)c(F)c3)ncc2N(C)C(=O)C1C (stereo unspecified) at 0.2 µM
embelin: CCCCCCCCCCCC1=C(O)C(=O)C=C(O)C1=O at 1.2 µM
ABT-263: CC1(C)CCC(c2ccc(Cl)cc2)=C(CN2CCN(c3ccc(C(=O)NS(=O)(=O)c4ccc(N[C@H](CCN5CCOCC5)CSc5ccccc5)c(S(=O)(=O)C(F)(F)F)c4)cc3)CC2)C1 at 0.4 µM
pioglitazone: CCc1ccc(CCOc2ccc(CC3SC(=O)NC3=O)cc2)nc1 (stereo unspecified) at 2 µM
PF-562271: CN(c1ncccc1CNc1nc(Nc2ccc3c(c2)CC(=O)N3)ncc1C(F)(F)F)S(C)(=O)=O at 0.08 µM
BMS-536924: Cc1cc(N2CCOCC2)cc2[nH]c(-c3c(NC[C@@H](O)c4cccc(Cl)c4)cc[nH]c3=O)nc12 at 0.2 µM
CHIR-265: Cn1c(Nc2ccc(C(F)(F)F)cc2)nc2cc(Oc3ccnc(-c4ncc(C(F)(F)F)[nH]4)c3)ccc21 at 0.08 µM
ruxolitinib: N#CC[C@H](C1CCCC1)n1cc(-c2ncnc3[nH]ccc23)cn1 at 1 µM
YM155: COCC[n+]1c2c(n(Cc3cnccn3)c1C)C(=O)c1ccccc1C2=O at 0.0004 µM
sunitinib: CCN(CC)CCNC(=O)c1c(C)[nH]c(/C=C2\C(=O)Nc3ccc(F)cc32)c1C at 0.4 µM
vincristine: CC[C@]1(O)C[C@H]2CN(CCc3c([nH]c4ccccc34)[C@@](C(=O)OC)(c3cc4c(cc3OC)N(C=O)[C@H]3[C@@](O)(C(=O)OC)[C@H](OC(C)=O)[C@]5(CC)C=CCN6CC[C@]43[C@@H]65)C2)C1 at 0.0001 µM
TCS401: O=C(O)C(=O)Nc1sc2c(c1C(=O)O)CCNC2 at 1.67 µM
U73122: COc1ccc2c(c1)CCC1C2CCC2(C)C(NCCCCCCN3C(=O)C=CC3=O)CCC12 (stereo unspecified) at 0.4 µM
ENMD-2076: Cc1cc(Nc2cc(N3CCN(C)CC3)nc(/C=C/c3ccccc3)n2)n[nH]1 at 0.04 µM
vorinostat: O=C(CCCCCCC(=O)Nc1ccccc1)NO at 0.08 µM
enzastaurin: Cn1cc(C2=C(c3cn(C4CCN(Cc5ccccn5)CC4)c4ccccc34)C(=O)NC2=O)c2ccccc21 at 0.8 µM
STA-4783: CN(NC(=O)CC(=O)NN(C)C(=S)c1ccccc1)C(=S)c1ccccc1 at 0.006 µM
lestaurtinib: C[C@]12O[C@H](C[C@]1(O)CO)n1c3ccccc3c3c4c(c5c6ccccc6n2c5c31)CNC4=O at 0.004 µM

Pair	501mel	A2058	COLO 829	LOX IMVI
TCS401 + CHIR-265	69.6	93.0	88.9	68.4
fludarabine + enzastaurin	-	105	109	131
YM155 + BMS-536924	-	44.1	126	140
pioglitazone + TCS401	-	116	96.7	74.1
ABT-263 + PF-562271	-	85.7	73.2	32.0
U73122 + sunitinib	73.5	99.0	109	117
sunitinib + vorinostat	-	113	116	105
lestaurtinib + ABT-263	-	109	121	47.1
pioglitazone + YM155	103	74.8	98.5	73.6
embelin + fludarabine	3.8	96.5	90.4	100
vincristine + YM155	-	19.0	92.5	118
BI-D1870 + YM155	107	88.6	114	90.9
ENMD-2076 + BI-D1870	82.8	91.6	102	82.3
ruxolitinib + fludarabine	-	109	112	72.8
ABT-263 + fludarabine	-	50.8	90.4	37.0
lestaurtinib + CHIR-265	-	98.0	87.8	83.6
TCS401 + tamatinib	85.0	85.3	69.9	106
ENMD-2076 + tamatinib	-	79.5	99.0	48.4
fludarabine + tamatinib	-	82.6	117	27.0
pioglitazone + STA-4783	63.5	101	85.4	91.6

Repeated from the top, 2 entries:

* TCS401 + CHIR-265 | 501mel: 69.6; A2058: 93.0; COLO 829: 88.9; LOX IMVI: 68.4
* fludarabine + enzastaurin | A2058: 105; COLO 829: 109; LOX IMVI: 131

Values as published with doi:10.1371/journal.pone.0140310, rounded.